Some entries share one result that the patent states for a list of compounds.
target: T1, hGIP-R (Homo sapiens, UniProt P48546); assay: Functional hGIP-R Assay (cAMP formation, HTRF); assay type: cell-based; conditions: cAMP formation in HEK-293 clonal cell lines expressing hGIP-R; 30 min at 37° C.; 0.1% bovine casein; relative EC50 vs. maximal response of human GIP (1-42) OH
T1 construct: expressed in transfected cells; host or cells: HEK-293 clonal cell lines
T1 sequence (P48546 22-466): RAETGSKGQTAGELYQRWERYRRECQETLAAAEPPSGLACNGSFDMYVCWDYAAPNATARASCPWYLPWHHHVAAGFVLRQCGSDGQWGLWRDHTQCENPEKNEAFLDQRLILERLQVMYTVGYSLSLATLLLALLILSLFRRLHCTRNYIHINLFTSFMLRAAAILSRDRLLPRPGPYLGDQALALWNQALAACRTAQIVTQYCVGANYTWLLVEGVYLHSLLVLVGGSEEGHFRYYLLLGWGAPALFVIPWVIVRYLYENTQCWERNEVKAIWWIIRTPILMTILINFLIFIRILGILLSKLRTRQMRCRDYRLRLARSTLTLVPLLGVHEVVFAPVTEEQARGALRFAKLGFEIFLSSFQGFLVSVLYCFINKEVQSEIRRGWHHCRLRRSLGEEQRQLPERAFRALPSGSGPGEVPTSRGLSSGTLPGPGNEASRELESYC
Summary of the method: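 Relative EC50 and Emax came from four-parameter logistic fits of cAMP as a percent of the human GIP (1-42) OH maximal response. The cAMP was measured by competitive HTRF after 30 min, 37 °C compound exposure of hGIP-R HEK-293 clones in IBMX (250 μM)-containing medium.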

Structure (SMILES)	EC50
Cc1cn2cc(-c3ccc([C@H]4C[C@@]45CCN([C@H](Cc4cnn(C(F)F)c4)C(=O)NC(C)(C)Cn4nc(C(F)(F)F)cc4-c4cc(F)c(=O)n(C)c4)C5=O)c(C)c3)cnc2n1 [Example 144, (R)-3-(1-(Difluoromethyl)-1H-pyrazol-4-yl)-N-(1-(5-(5-fluoro-1-methyl-6-oxo-1,6-dihydropyridin-3-yl)-3-(trifluoromethyl)-1H-pyrazol-1-yl)-2-methylpropan-2-yl)-2-((1R,3R)-1-(2-methyl-4-(2-methylimidazo[1,2-a]pyrimidin-6-yl)phenyl)-4-oxo-5-azaspiro[2.4]heptan-5-yl)propanamide]	≤ 300 nM
[2H]C([2H])([2H])n1cc(C[C@H](C(=O)NC(C)(C)Cn2nc(C(F)(F)F)cc2-c2cnc(C)nc2)N2CC[C@@]3(C[C@@H]3c3ccc(-c4cnc5nc(C)cn5c4)cc3Cl)C2=O)cn1 [Example 152, (R)-2-((1S,3R)-1-(2-Chloro-4-(2-methylimidazo[1,2-a]pyrimidin-6-yl)phenyl)-4-oxo-5-azaspiro[2.4]heptan-5-yl)-N-(2-methyl-1-(5-(2-methylpyrimidin-5-yl)-3-(trifluoromethyl)-1H-pyrazol-1-yl)propan-2-yl)-3-(1-(methyl-d3)-1H-pyrazol-4-yl)propanamide]	≤ 300 nM
Cn1cc2cc(-c3ccc([C@H]4C[C@@]45CCN([C@H](Cc4cnn(C(F)F)c4)C(=O)NC(C)(C)Cn4nc(C(F)(F)F)cc4P(C)(C)=O)C5=O)c(Cl)c3)cnc2n1 [Example 163, (R)-2-((1S,3R)-1-(2-chloro-4-(2-methyl-2H-pyrazolo[3,4-b]pyridin-5-yl)phenyl)-4-oxo-5-azaspiro[2.4]heptan-5-yl)-3-(1-(difluoro-methyl)-1H-pyrazol-4-yl)-N-(1-(5-(dimethyl-phosphoryl)-3-(trifluoro-methyl)-1H-pyrazol-1-yl)-2-methylpropan-2-yl)propanamide]	≤ 300 nM
CC(C)(Cc1ccc(F)cc1)NC(=O)[C@@H](Cc1cnc2ncccn12)NC(=O)[C@H]1C[C@@H]1c1ccc(NC(=O)C2CCC(F)(F)CC2)cc1 [Example 49, 4,4-Difluoro-N-(4-((1S,2S)-2-(((R)-1-((1-(4-fluorophenyl)-2-methylpropan-2-yl)amino)-3-(imidazo[1,2-a]pyrimidin-3-yl)-1-oxopropan-2-yl)carbamoyl)cyclopropyl)phenyl)cyclohexane-1-carboxamide]	≤ 300 nM
COc1ncc(-c2ccc([C@H]3C[C@@]34CCN([C@H](Cc3cnn(C(F)F)c3)C(=O)NC(C)(C)Cn3nc(C(F)(F)F)cc3-c3ccn(C5CC5)c(=O)c3)C4=O)c(C)n2)cn1 [Example 173, (R)-N-(1-(5-(1-cyclopropyl-2-oxo-1,2-dihydropyridin-4-yl)-3-(trifluoromethyl)-1H-pyrazol-1-yl)-2-methylpropan-2-yl)-3-(1-(difluoromethyl)-1H-pyrazol-4-yl)-2-((1R,3R)-1-(6-(2-methoxypyrimidin-5-yl)-2-methylpyridin-3-yl)-4-oxo-5-azaspiro[2.4]heptan-5-yl)propanamide]	≤ 300 nM
Cn1cc2cc(-c3ccc([C@H]4C[C@@]45CCN([C@H](Cc4cnn(C(F)F)c4)C(=O)NC(C)(C)Cn4nc(C(F)(F)F)cc4-c4ccc(P(C)(C)=O)cc4)C5=O)c(Cl)c3)cnc2n1 [Example 162, (R)-2-((1S,3R)-1-(2-chloro-4-(2-methyl-2H-pyrazolo[3,4-b]pyridin-5-yl)phenyl)-4-oxo-5-azaspiro[2.4]heptan-5-yl)-3-(1-(difluoro-methyl)-1H-pyrazol-4-yl)-N-(1-(5-(4-(dimethyl-phosphoryl)phenyl)-3-(trifluoro-methyl)-1H-pyrazol-1-yl)-2-methylpropan-2-yl)propanamide]	≤ 300 nM
[2H]C([2H])([2H])n1cc(C[C@H](C(=O)NC(C)(C)Cn2nc(C(F)(F)F)cc2-c2cnc(C(C)(C)O)nc2)N2CC[C@@]3(C[C@@H]3c3ccc(-c4cnc5nc(C)cn5c4)cc3Cl)C2=O)cn1 [Example 187, (R)-2-((1S,3R)-1-(2-chloro-4-(2-methylimidazo[1,2-a]pyrimidin-6-yl)phenyl)-4-oxo-5-azaspiro[2.4]heptan-5-yl)-N-(1-(5-(2-(2-hydroxypropan-2-yl)pyrimidin-5-yl)-3-(trifluoromethyl)-1H-pyrazol-1-yl)-2-methylpropan-2-yl)-3-(1-(methyl-d3)-1H-pyrazol-4-yl)propanamide]	≤ 300 nM
Cn1cc(-c2cc(C(F)(F)F)nn2CC(C)(C)NC(=O)[C@@H](Cc2cnc3ncccn23)NC(=O)[C@H]2C[C@@H]2c2ccc(-c3cnc4nccn4c3)cc2)cn1 [Example 38]	≤ 300 nM
COCc1cn2cc(-c3ccc([C@H]4C[C@@H]4C(=O)N(C)[C@H](Cc4cnn(C)c4)C(=O)NC(C)(C)Cn4nc(C(F)(F)F)cc4-c4ccc(=O)n(C)c4)cc3)cnc2n1 [Example 90, (1S,2S)-2-(4-(2-(Methoxymethyl)imidazo[1,2-a]pyrimidin-6-yl)phenyl)-N-methyl-N-((R)-1-((2-methyl-1-(5-(1-methyl-6-oxo-1,6-dihydropyridin-3-yl)-3-(trifluoromethyl)-1H-pyrazol-1-yl)propan-2-yl)amino)-3-(1-methyl-1H-pyrazol-4-yl)-1-oxopropan-2-yl)cyclopropane-1-carboxamide]	≤ 300 nM
Cn1cc2cc(-c3ccc([C@H]4C[C@@H]4C(=O)N[C@H](Cc4cnc5ncccn45)C(=O)NC(C)(C)Cn4nc(C(F)(F)F)cc4-c4cn[nH]n4)cc3)cnc2n1 [Example 69, (1S,2S)-N-((R)-1-((1-(5-(2H-1,2,3-Triazol-4-yl)-3-(trifluoromethyl)-1H-pyrazol-1-yl)-2-methylpropan-2-yl)amino)-3-(imidazo[1,2-a]pyrimidin-3-yl)-1-oxopropan-2-yl)-2-(4-(2-methyl-2H-pyrazolo [3,4-b]pyridin-5-yl)phenyl)cyclopropane-1-carboxamide]	≤ 300 nM
Cn1cc2cc(-c3ccc([C@H]4C[C@@]45CCN([C@H](Cc4cnn(C(F)F)c4)C(=O)NC(C)(C)Cn4nc(C(F)(F)F)cc4-c4cc(F)c(=O)n(C)c4)C5=O)c(F)c3)cnc2n1 (single isomer, unassigned; isomer 1) [Example 99]	≤ 300 nM
Cn1cc2cc(-c3ccc([C@H]4C[C@@]45CCN([C@H](Cc4cnn(C(F)F)c4)C(=S)NC(C)(C)Cn4nc(C(F)(F)F)cc4-c4cc(F)c(=O)n(C)c4)C5=O)c(F)c3)cnc2n1 (single isomer, unassigned; isomer 1) [Example 118]	≤ 300 nM
CC(C)(Cn1ccc(C(F)(F)F)n1)NC(=O)[C@@H](Cc1cnc2ncccn12)NC(=O)[C@H]1C[C@@H]1c1ccc(-c2cnc3nccn3c2)cc1 [Example 39, (1S,2S)-N-((R)-3-(Imidazo[1,2-a]pyrimidin-3-yl)-1-((2-methyl-1-(3-(trifluoromethyl)-1H-pyrazol-1-yl)propan-2-yl)amino)-1-oxopropan-2-yl)-2-(4-(imidazo[1,2-a]pyrimidin-6-yl)phenyl) cyclopropane-1-carboxamide]	≤ 300 nM
[2H]C([2H])([2H])n1cc(C[C@H](C(=O)NC(C)(C)Cn2nc(C(F)(F)F)cc2-c2cnc(C(C)(C)O)nc2)N2CC[C@@]3(C[C@@H]3c3ccc(-c4cnc5nn(C)cc5c4)cc3Cl)C2=O)cn1 [Example 193, (R)-2-((1S,3R)-1-(2-chloro-4-(2-methyl-2H-pyrazolo[3,4-b]pyridin-5-yl)phenyl)-4-oxo-5-azaspiro[2.4]heptan-5-yl)-N-(1-(5-(2-(2-hydroxypropan-2-yl)pyrimidin-5-yl)-3-(trifluoromethyl)-1H-pyrazol-1-yl)-2-methylpropan-2-yl)-3-(1-(methyl-d3)-1H-pyrazol-4-yl)propanamide]	≤ 300 nM
Cn1cc(C[C@@H](NC(=O)[C@H]2C[C@@H]2c2ccc(-c3cnc4nn(C)cc4c3)cc2)C(=O)NC(C)(C)Cn2nc(C(F)(F)F)cc2-c2cnn3c2CN(C(=O)OC(C)(C)C)CC3)cn1 [Example 56, tert-Butyl 3-(1-(2-methyl-2-((R)-3-(1-methyl-1H-pyrazol-4-yl)-2-((1S,2S)-2-(4-(2-methyl-2H-pyrazolo[3,4-b]pyridin-5-yl)phenyl)cyclopropane-1-carboxamido)propanamido)propyl)-3-(trifluoromethyl)-1H-pyrazol-5-yl)-6,7-dihydropyrazolo[1,5-a]pyrazine-5(4H)-carboxylate]	≤ 300 nM
[2H]C([2H])([2H])n1cc(C[C@H](C(=O)NC(C)(C)Cn2nc(C(F)(F)F)cc2-c2ccc(C(C)(C)O)nc2)N2CC[C@@]3(C[C@@H]3c3ccc(-c4cnc5nn(CC)cc5c4)nc3C)C2=O)cn1 [Example 189, (R)-2-((1R,3R)-1-(6-(2-Ethyl-2H-pyrazolo[3,4-b]pyridin-5-yl)-2-methylpyridin-3-yl)-4-oxo-5-azaspiro[2.4]heptan-5-yl)-N-(1-(5-(6-(2-hydroxypropan-2-yl)pyridin-3-yl)-3-(trifluoromethyl)-1H-pyrazol-1-yl)-2-methylpropan-2-yl)-3-(1-(methyl-d3)-1H-pyrazol-4-yl)propanamide]	≤ 300 nM
